Test results published in publication PMC9324194.
Results are given in words; binding and its absence hold for the method and conditions named. Some results given as binding are weak or reduced against the parent protein; the word gives no strength.

By UniProt entry, the sequences of proteins in these tests, tags left out.
UniProt P27695: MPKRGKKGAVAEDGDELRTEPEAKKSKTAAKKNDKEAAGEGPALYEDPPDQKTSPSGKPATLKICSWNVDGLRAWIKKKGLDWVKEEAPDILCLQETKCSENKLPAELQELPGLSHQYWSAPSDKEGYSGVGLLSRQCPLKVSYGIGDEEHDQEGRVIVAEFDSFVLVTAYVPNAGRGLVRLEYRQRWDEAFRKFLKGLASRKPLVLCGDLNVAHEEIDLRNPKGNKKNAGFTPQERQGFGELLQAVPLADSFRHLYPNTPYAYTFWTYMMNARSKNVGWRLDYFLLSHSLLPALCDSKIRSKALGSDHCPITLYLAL
UniProt P06748: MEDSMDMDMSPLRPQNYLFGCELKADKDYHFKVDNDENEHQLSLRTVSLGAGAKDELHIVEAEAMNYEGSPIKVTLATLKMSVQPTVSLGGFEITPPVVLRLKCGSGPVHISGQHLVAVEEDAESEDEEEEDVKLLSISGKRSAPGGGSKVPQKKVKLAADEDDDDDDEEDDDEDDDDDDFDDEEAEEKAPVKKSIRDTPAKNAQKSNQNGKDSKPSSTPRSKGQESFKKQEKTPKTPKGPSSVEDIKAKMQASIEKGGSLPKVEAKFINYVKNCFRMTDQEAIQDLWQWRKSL

Biological target: Cy3-APE1 (full-length APE1 labelled with Cy3 at the N-terminus) (human) (UniProt P27695)
Assay: FRET or BRET; FRET between donor-labelled abasic DNA oligonucleotide (500 nM) and acceptor-labelled APE1 (500 nM) in ternary mixtures with 4 μM unlabelled NPM1 pentamer; 20 mM potassium phosphate pH 7.0, 50 mM NaCl, 2 mM DTT, 10 mM EDTA; 20 °C; both purified

binding: binds
Substance: nucleophosmin (NPM1) (from UniProt P06748 1-294)
